Test results: doi:10.1101/2022.01.12.475930
Results are given in words; binding and its absence hold for the method and conditions named. For part of these data: Binding seen in cells or lysates may run through a third protein. Some entries that bind do so weakly or less than the wild type. For part of these data: Tags and fused reporters may be left off the sequences shown.

Key:
[1] = molecular target: T1, PPT1 (human (endogenous in HEK293)), P50897; assay: cross-linking; details: remark: other sources report otherwise
T1 chain: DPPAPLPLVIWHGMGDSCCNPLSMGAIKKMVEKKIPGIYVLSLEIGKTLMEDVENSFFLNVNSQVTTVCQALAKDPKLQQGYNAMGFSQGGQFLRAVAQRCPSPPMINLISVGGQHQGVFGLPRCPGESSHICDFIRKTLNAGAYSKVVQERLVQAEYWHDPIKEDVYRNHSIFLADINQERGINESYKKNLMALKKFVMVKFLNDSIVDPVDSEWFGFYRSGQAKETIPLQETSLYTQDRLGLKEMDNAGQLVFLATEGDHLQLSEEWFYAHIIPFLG

FLOT2-FLAG [2] = molecular target: T2, FLOT2-FLAG (UniProt Q14254); assay: cross-linking
T2 sequence: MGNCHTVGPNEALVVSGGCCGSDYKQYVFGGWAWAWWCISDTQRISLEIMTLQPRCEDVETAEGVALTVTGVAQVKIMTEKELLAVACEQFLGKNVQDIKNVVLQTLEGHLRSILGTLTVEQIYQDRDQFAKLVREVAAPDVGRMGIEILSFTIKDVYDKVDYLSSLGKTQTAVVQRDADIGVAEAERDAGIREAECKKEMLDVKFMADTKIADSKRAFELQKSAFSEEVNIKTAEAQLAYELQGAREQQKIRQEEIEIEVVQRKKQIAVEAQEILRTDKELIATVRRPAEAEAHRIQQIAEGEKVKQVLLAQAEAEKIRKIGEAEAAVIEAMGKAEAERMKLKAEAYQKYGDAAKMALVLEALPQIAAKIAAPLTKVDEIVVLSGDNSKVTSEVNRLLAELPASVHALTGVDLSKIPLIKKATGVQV

FLOT2-FLAG [3] = molecular target: T2, FLOT2-FLAG; assay: native gel or EMSA

B1: PPT1, P50897 28-306 (enzyme)
chain: DPPAPLPLVIWHGMGDSCCNPLSMGAIKKMVEKKIPGIYVLSLEIGKTLMEDVENSFFLNVNSQVTTVCQALAKDPKLQQGYNAMGFSQGGQFLRAVAQRCPSPPMINLISVGGQHQGVFGLPRCPGESSHICDFIRKTLNAGAYSKVVQERLVQAEYWHDPIKEDVYRNHSIFLADINQERGINESYKKNLMALKKFVMVKFLNDSIVDPVDSEWFGFYRSGQAKETIPLQETSLYTQDRLGLKEMDNAGQLVFLATEGDHLQLSEEWFYAHIIPFLG
**Q.** With B1 as the binder, how does the binding [1] read?
**A.** binds

B2: FLOT1-FLAG (protein, UniProt O75955 1-427)
chain: MFFTCGPNEAMVVSGFCRSPPVMVAGGRVFVLPCIQQIQRISLNTLTLNVKSEKVYTRHGVPISVTGIAQVKIQGQNKEMLAAACQMFLGKTEAEIAHIALETLEGHQRAIMAHMTVEEIYKDRQKFSEQVFKVASSDLVNMGISVVSYTLKDIHDDQDYLHSLGKARTAQVQKDARIGEAEAKRDAGIREAKAKQEKVSAQYLSEIEMAKAQRDYELKKAAYDIEVNTRRAQADLAYQLQVAKTKQQIEEQRVQVQVVERAQQVAVQEQEIARREKELEARVRKPAEAERYKLERLAEAEKSQLIMQAEAEAASVRMRGEAEAFAIGARARAEAEQMAKKAEAFQLYQEAAQLDMLLEKLPQVAEEISGPLTSANKITLVSSGSGTMGAAKVTGEVLDILTRLPESVERLTGVSISQVNHKPLRTA
**Q.** Which binding (FLOT2-FLAG [2]) does the source give for B2 here?
**A.** binds

**Q.** And the binding (FLOT2-FLAG [3])?
**A.** binds
